Experimental findings from publication PMC11077971 (mBio, 2024) are described below.

Common to all, as to test: pull-down; GST-fused BC proteins and His-tagged CTβ-CTα, similar procedure as with GST-CTβ-CTα; SDS-PAGE; also with 2 mM NaHCO3 and Ac-CoA added (not affected); both purified
For test [1], the target named is T1, GST-BC1ΔBCCP^Core (Met1-Lys510) (Chloroflexus aurantiacus J-10-fl) (UniProt A9W9X0).
T1 sequence: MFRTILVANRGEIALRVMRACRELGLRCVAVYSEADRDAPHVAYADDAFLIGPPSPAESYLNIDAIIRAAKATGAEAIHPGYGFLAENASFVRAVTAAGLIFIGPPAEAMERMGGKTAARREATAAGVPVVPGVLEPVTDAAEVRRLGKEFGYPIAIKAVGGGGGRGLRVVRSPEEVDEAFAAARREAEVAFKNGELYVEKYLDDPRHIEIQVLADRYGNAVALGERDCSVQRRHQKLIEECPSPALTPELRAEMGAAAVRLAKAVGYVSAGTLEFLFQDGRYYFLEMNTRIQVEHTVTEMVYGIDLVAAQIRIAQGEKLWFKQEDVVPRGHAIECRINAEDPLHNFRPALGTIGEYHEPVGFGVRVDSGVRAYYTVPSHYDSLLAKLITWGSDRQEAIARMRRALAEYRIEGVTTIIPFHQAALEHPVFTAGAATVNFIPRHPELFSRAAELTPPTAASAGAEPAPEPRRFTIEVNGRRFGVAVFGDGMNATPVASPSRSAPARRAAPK

The target of test [2] is T2, GST-tagged BC1ΔBCCP (Met1-Glu452) (Chloroflexus aurantiacus J-10-fl) (UniProt A9W9X0).
T2 sequence: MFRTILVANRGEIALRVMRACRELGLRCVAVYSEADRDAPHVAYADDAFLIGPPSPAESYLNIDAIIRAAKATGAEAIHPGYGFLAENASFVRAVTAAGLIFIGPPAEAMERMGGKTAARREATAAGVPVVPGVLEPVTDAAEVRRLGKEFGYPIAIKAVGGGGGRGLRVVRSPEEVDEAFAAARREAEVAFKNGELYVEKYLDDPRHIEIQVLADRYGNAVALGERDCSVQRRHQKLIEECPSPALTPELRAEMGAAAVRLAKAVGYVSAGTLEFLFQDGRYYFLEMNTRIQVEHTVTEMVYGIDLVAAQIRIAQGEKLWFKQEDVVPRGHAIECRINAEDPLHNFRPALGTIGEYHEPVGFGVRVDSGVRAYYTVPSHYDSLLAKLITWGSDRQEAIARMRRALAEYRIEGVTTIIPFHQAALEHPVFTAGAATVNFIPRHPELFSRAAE

In test [3] the target is T3, GST-tagged BC2 (Chloroflexus aurantiacus J-10-fl) (UniProt A9WKH8).
T3 sequence: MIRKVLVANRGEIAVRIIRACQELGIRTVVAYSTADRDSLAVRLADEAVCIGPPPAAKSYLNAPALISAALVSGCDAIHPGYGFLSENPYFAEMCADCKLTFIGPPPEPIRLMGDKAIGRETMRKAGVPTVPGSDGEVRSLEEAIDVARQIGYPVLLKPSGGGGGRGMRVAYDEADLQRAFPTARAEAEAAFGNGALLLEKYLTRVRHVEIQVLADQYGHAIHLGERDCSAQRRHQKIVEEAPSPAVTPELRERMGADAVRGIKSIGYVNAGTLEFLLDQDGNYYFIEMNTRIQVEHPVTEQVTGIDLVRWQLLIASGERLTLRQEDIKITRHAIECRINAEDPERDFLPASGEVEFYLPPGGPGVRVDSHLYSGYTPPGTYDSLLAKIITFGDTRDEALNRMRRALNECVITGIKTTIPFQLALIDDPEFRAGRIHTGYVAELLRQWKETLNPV

Test [4] deals with T4, GST-tagged biotinylated BC1 (Chloroflexus aurantiacus J-10-fl) (UniProt A9W9X0).
T4 sequence (chain, biotin on Lys553): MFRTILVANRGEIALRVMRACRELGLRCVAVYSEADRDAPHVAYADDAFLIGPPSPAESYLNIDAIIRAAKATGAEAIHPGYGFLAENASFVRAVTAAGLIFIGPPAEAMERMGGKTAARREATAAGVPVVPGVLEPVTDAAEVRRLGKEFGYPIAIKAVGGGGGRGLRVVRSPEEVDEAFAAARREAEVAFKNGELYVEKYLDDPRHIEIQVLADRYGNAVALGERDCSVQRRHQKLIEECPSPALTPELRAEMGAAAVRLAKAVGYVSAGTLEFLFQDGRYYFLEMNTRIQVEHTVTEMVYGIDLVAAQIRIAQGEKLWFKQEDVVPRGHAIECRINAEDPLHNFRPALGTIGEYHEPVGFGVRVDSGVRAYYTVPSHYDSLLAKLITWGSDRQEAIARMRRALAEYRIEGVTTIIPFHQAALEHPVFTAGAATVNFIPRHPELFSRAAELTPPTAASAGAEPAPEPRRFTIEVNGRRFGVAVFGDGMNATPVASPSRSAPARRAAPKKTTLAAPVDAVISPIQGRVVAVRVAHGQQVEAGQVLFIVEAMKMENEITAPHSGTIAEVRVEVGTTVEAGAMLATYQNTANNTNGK

For test [5], the target named is T5, GST-tagged BC1K553A (Chloroflexus aurantiacus J-10-fl) (UniProt A9W9X0).
T5 sequence: T4 sequence (chain, biotin on Lys553) with K553A

Substitutions are numbered along the chain they refer to. These are yes or no findings as the source states them, for the method shown. For some assays here: Binding can be weak; no strength is given. Sequences can lack the tags named with a protein.

Turning to “His6-CTβ-CTα subcomplex of Chloroflexus aurantiacus carboxyltransferase”, the binding result in test [1] is listed as “no binding”; in test [2] it was “no binding”; in test [3] it was “no binding”; in test [4], “binds”; in test [5] it was “no binding”.
